Here are results for 7 molecules from article PMC11506777.

Amino acid sequences for entries named in this document (tags omitted). Residues count along the entry.
UniProt P07237, residues 18-508: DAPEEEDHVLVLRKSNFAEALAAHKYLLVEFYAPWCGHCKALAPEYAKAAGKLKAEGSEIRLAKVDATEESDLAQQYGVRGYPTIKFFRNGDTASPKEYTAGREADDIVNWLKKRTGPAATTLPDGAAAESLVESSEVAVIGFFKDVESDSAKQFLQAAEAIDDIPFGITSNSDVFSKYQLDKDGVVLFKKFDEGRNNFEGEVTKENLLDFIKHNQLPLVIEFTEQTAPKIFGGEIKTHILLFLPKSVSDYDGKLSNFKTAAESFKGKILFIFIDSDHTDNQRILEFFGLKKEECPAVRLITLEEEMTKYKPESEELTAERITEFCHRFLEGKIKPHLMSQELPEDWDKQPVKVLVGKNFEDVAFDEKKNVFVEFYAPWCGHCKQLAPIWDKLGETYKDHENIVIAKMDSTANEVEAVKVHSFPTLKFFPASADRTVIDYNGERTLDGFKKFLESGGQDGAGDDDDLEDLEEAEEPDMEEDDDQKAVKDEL
UniProt P30101, residues 25-505: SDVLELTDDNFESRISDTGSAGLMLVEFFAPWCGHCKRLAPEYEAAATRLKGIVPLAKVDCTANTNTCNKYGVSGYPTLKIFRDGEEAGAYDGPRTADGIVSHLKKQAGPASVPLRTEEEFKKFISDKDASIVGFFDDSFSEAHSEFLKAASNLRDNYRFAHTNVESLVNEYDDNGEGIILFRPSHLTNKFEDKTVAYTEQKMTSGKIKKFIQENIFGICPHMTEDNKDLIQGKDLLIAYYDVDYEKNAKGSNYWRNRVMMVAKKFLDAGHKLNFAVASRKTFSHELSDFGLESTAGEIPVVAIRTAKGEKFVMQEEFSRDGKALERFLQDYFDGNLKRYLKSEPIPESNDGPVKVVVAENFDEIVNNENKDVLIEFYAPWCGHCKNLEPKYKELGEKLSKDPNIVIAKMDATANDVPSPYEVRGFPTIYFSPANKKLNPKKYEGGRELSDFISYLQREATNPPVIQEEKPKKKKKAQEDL
UniProt P34932: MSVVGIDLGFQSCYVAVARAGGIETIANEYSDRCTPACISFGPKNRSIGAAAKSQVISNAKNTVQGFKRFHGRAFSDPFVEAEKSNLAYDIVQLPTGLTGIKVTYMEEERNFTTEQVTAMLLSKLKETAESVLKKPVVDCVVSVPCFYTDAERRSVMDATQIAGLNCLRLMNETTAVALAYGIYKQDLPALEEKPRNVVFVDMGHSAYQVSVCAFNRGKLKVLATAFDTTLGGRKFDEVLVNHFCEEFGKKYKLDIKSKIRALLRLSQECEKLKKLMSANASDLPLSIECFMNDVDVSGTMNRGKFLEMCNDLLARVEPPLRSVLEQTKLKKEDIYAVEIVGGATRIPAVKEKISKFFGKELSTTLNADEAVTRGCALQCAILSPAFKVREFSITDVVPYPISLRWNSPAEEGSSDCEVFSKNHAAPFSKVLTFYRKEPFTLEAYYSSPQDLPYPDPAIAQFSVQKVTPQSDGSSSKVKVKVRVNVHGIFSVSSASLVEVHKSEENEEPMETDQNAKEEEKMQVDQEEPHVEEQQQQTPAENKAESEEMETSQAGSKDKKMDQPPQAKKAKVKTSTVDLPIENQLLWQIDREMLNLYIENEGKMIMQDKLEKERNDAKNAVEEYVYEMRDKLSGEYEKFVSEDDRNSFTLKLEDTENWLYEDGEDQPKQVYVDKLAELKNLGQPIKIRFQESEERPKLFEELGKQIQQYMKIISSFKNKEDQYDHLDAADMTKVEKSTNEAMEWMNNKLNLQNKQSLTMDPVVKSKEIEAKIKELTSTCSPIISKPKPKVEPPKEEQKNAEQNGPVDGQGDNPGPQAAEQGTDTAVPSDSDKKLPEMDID
UniProt P11021, residues 19-654: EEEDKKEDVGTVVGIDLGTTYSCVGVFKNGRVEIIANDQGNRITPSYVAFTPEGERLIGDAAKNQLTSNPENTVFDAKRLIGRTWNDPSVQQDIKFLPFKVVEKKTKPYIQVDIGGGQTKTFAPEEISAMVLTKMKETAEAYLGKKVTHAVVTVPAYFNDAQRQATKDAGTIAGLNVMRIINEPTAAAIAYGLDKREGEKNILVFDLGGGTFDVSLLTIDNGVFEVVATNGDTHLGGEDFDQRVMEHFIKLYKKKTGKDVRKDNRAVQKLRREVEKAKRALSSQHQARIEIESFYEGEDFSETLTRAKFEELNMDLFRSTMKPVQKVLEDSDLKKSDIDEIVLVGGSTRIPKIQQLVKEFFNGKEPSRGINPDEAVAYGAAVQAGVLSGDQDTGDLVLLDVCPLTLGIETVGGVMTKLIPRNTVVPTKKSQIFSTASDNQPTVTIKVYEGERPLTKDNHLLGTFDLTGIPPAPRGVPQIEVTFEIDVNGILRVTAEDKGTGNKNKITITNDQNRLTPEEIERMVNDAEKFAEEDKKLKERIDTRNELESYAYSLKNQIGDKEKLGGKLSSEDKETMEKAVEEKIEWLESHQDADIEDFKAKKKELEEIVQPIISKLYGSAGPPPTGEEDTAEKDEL

Results are given in words; binding and its absence hold for the method and conditions named. In cells and extracts the contact can be indirect. Here binding means that the protein was enriched with, or labelled near, the bait; the list need not be complete. Sequences can lack the tags named with a protein.

Sequences and labels used below:
T1: Klotho-EGFP N614Q (mouse) (UniProt O35082)
T1 sequence: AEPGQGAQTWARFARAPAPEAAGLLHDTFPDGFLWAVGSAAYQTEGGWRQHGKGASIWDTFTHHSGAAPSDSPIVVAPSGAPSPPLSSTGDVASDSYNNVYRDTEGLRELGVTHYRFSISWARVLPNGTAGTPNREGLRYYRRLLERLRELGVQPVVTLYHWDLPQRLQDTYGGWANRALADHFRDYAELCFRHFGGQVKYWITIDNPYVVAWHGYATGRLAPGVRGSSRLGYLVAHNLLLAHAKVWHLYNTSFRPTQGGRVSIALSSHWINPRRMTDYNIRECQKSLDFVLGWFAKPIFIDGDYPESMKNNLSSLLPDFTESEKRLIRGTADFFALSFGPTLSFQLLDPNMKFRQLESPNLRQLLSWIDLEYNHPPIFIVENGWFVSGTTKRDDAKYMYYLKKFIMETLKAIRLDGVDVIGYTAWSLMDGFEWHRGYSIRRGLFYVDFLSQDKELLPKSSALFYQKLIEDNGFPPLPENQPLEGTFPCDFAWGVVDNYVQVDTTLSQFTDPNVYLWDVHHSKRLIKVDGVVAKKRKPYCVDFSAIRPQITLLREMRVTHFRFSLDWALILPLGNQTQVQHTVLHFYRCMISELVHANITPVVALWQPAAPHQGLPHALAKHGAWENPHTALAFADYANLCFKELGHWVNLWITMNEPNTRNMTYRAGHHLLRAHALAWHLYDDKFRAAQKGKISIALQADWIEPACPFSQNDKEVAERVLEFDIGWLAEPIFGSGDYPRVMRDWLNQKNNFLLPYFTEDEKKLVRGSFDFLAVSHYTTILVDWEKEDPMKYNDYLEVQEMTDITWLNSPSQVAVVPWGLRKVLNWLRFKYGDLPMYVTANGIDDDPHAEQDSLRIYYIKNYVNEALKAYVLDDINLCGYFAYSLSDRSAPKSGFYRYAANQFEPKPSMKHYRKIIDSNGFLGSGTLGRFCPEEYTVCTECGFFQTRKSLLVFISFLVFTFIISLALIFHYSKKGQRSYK

B1: PDIA4 (protein, UniProt P13667 21-645)
chain: VAGAEGPDEDSSNRENAIEDEEEEEEEDDDEEEDDLEVKEENGVLVLNDANFDNFVADKDTVLLEFYAPWCGHCKQFAPEYEKIANILKDKDPPIPVAKIDATSASVLASRFDVSGYPTIKILKKGQAVDYEGSRTQEEIVAKVREVSQPDWTPPPEVTLVLTKENFDEVVNDADIILVEFYAPWCGHCKKLAPEYEKAAKELSKRSPPIPLAKVDATAETDLAKRFDVSGYPTLKIFRKGRPYDYNGPREKYGIVDYMIEQSGPPSKEILTLKQVQEFLKDGDDVIIIGVFKGESDPAYQQYQDAANNLREDYKFHHTFSTEIAKFLKVSQGQLVVMQPEKFQSKYEPRSHMMDVQGSTQDSAIKDFVLKYALPLVGHRKVSNDAKRYTRRPLVVVYYSVDFSFDYRAATQFWRSKVLEVAKDFPEYTFAIADEEDYAGEVKDLGLSESGEDVNAAILDESGKKFAMEPEEFDSDTLREFVTAFKKGKLKPVIKSQPVPKNNKGPVKVVVGKTFDSIVMDPKKDVLIEFYAPWCGHCKQLEPVYNSLAKKYKGQKGLVIAKMDATANDVPSDRYKVEGFPTIYFAPSGDKKNPVKFEGGDRDLEHLSKFIEEHATKLSRTKEEL
B2: MOGS (mannosyl-oligosaccharide glucosidase) (enzyme, UniProt Q13724 1-837)
chain: MARGERRRRAVPAEGVRTAERAARGGPGRRDGRGGGPRSTAGGVALAVVVLSLALGMSGRWVLAWYRARRAVTLHSAPPVLPADSSSPAVAPDLFWGTYRPHVYFGMKTRSPKPLLTGLMWAQQGTTPGTPKLRHTCEQGDGVGPYGWEFHDGLSFGRQHIQDGALRLTTEFVKRPGGQHGGDWSWRVTVEPQDSGTSALPLVSLFFYVVTDGKEVLLPEVGAKGQLKFISGHTSELGDFRFTLLPPTSPGDTAPKYGSYNVFWTSNPGLPLLTEMVKSRLNSWFQHRPPGAPPERYLGLPGSLKWEDRGPSGQGQGQFLIQQVTLKIPISIEFVFESGSAQAGGNQALPRLAGSLLTQALESHAEGFRERFEKTFQLKEKGLSSGEQVLGQAALSGLLGGIGYFYGQGLVLPDIGVEGSEQKVDPALFPPVPLFTAVPSRSFFPRGFLWDEGFHQLVVQRWDPSLTREALGHWLGLLNADGWIGREQILGDEARARVPPEFLVQRAVHANPPTLLLPVAHMLEVGDPDDLAFLRKALPRLHAWFSWLHQSQAGPLPLSYRWRGRDPALPTLLNPKTLPSGLDDYPRASHPSVTERHLDLRCWVALGARVLTRLAEHLGEAEVAAELGPLAASLEAAESLDELHWAPELGVFADFGNHTKAVQLKPRPPQGLVRVVGRPQPQLQYVDALGYVSLFPLLLRLLDPTSSRLGPLLDILADSRHLWSPFGLRSLAASSSFYGQRNSEHDPPYWRGAVWLNVNYLALGALHHYGHLEGPHQARAAKLHGELRANVVGNVWRQYQATGFLWEQYSDRDGRGMGCRPFHGWTSLVLLAMAEDY

This experiment has as its target T1, Klotho-EGFP N614Q (mouse). Briefly: affinity purification with mass spectrometry; GFP-TRAP agarose immunoprecipitation from CHAPSO lysates (150 mM citrate buffer pH 6.4, 2% CHAPSO) of untreated HEK293T cells stably expressing Klotho-EGFP variants or GFP; elution with 200 mM glycine pH 2.5; DIA LC-MS; six biological replicates.
On to P4HB (from UniProt P07237 18-508), for which the binding entry is reported as “binds”.

As for PDIA3 (from UniProt P30101 25-505), the binding entry is “binds”.

Turning to HSPA4 (from UniProt P34932 1-840), the binding result is reported as “binds”.

As for “HSPA5 (BiP) (from UniProt P11021 19-654)”, the binding result is “binds”.

As for CALR (from UniProt P27797 18-417), the binding result is given as “binds”.

With B1, the binding entry is reported as “binds”.

Regarding B2, the binding entry was “binds”.
